Results deposited as PubChem BioAssay AID504774 (Drosophila RNAi Screening Center, 2011).
The screen tested about 23,000 reagents; shown is a random part of those that have a named target and a result. 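Values are quantile-normalised luminescence on an arbitrary scale; higher means more cells surviving MMS.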 Reagents against one gene are numbered here.

Screen: 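Genes required for cells to withstand methyl methanesulphonate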 (primary screen)
Cell system: Drosophila Kc167 cells
Reagents: long dsRNA against Drosophila genes, about 0.25 µg dsRNA per well
Time to read-out: about 6 days: 3 days knock-down, then 3 days with or without MMS
Conditions: methyl methanesulphonate 0.004% (w/v) for 3 days after knock-down
Detection: 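Viability in wells given MMS, read as ATP luminescence, normalised by quantiles plate by plate and averaged across replicates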
Reading the numbers: mean viability with MMS and viability with MMS: higher = more surviving cells after MMS

Target gene | reagent no. | mean viability with MMS | viability with MMS, replicate 1 | viability with MMS, replicate 2
CG15023 | 1 | 3.70e6 | 4.34e6 | 4.04e6
CG42582 (retired record) | 1 | 2.18e6 | 3.75e6 | 3.56e6
Tbce (Tubulin-binding cofactor E) | 1 | 3.31e6 | 3.72e6 | 3.75e6
Tango6 (Transport and Golgi organization 6) | 1 | 3.46e6 | 3.94e6 | 3.87e6
NaPi-T (Na[+]-dependent inorganic phosphate cotransporter) | 1 | 3.66e6 | 4.29e6 | 4.14e6
Alp12 (Alkaline phosphatase 12) | 1 | 3.62e6 | 4.04e6 | 4.18e6
Hayan | 1 | 3.70e6 | 4.04e6 | 4.10e6
Hayan | 2 | 3.27e6 | 3.79e6 | 3.85e6
CG7264 | 1 | 3.48e6 | 3.92e6 | 3.97e6
CG7907 | 1 | 3.73e6 | 4.25e6 | 4.22e6
RhoU | 1 | 3.58e6 | 4.08e6 | 4.03e6
RhoU | 2 | 3.49e6 | 4.03e6 | 3.86e6
RhoU | 3 | 3.62e6 | 4.06e6 | 4.12e6
RhoU | 4 | 3.59e6 | 4.02e6 | 4.08e6
RhoU | 5 | 3.30e6 | 3.85e6 | 3.86e6

Next part, starting with the last 4 of the part before.
Target gene | reagent no. | mean viability with MMS | viability with MMS, replicate 1 | viability with MMS, replicate 2
RhoU | 2 | 3.49e6 | 4.03e6 | 3.86e6
RhoU | 3 | 3.62e6 | 4.06e6 | 4.12e6
RhoU | 4 | 3.59e6 | 4.02e6 | 4.08e6
RhoU | 5 | 3.30e6 | 3.85e6 | 3.86e6
mgl (Megalin) | 1 | 3.81e6 | 4.41e6 | 4.16e6
mgl (Megalin) | 2 | 3.62e6 | 4.35e6 | 4.07e6
mgl (Megalin) | 3 | 3.65e6 | 4.13e6 | 4.11e6
mgl (Megalin) | 4 | 3.54e6 | 4.04e6 | 3.98e6
per (period) | 1 | 3.51e6 | 4.06e6 | 3.91e6
CG15370 | 1 | 3.54e6 | 4.05e6 | 3.97e6
CG15370 | 2 | 3.49e6 | 3.89e6 | 4.06e6
Pex3 (Peroxin 3) | 1 | 3.57e6 | 4.12e6 | 3.96e6
Cyp6v1 (Cytochrome P450 6v1) | 1 | 3.61e6 | 4.13e6 | 4.01e6
Sfp38D (Seminal fluid protein 38D) | 1 | 3.51e6 | 4.08e6 | 3.89e6
Sesn (Sestrin) | 1 | 3.49e6 | 3.75e6 | 4.20e6
Sesn (Sestrin) | 2 | 3.86e6 | 4.38e6 | 4.23e6
Sesn (Sestrin) | 3 | 3.76e6 | 4.46e6 | 4.00e6
